Article PMC1831492

Target: T1, CTCF 11ZF DNA-binding domain (UniProt P49711)
T1 sequence (looked up, limits assumed): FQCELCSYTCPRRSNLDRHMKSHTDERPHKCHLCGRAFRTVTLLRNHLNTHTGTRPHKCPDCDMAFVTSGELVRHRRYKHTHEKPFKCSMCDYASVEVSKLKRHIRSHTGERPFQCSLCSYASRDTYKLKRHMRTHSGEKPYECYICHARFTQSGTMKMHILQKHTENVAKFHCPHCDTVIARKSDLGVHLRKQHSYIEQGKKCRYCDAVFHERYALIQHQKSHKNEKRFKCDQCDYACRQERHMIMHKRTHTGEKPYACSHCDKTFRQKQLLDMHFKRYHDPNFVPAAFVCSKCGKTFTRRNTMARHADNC
Assay: EMSA
Settings: 0.1 mM ZnSO4, 5 mM MgCl2; PBS with 5 mM MgCl2, 0.1 mM ZnSO4, 1 mM DTT, 0.1% NP40, 10% glycerol, poly(dI-dC) and salmon sperm DNA; 20 ul, 30 min, room temperature; 5% PAGE in 0.5x TBE; protein translated in vitro; label: 32P; probe letters rebuilt from the primers and the genome

AAATGTAGCCACACTAGCGTGGGGGATTTGAGGTGAGACATCGAAAATACTAAGTCATGGTGAGGGCTGGAAGACAAAAGAATGAATCACTTAATAGGAATGGCTGTGGGGAAGGGCTTGAAGGAATCATCCTCTGACTTCCATGTGAACCGTGAACATTAAACATGGAGAAATGAGGAGCGGCGGCAGATCGGTTTGGGATGCATCTTCAGGGGATGCTGAAACAACAACAGCATTTGGTTTG (double strand) [SPANX promoter -490 to -246]
binding result: no binding

For at least one entry, the source does not settle the construct or the ends of the probe. A negative result means that nothing was seen under these conditions. Where a protein sequence is shown, tags need not be part of it.
